# Values quoted from earlier work, collected in article PMC10049421, “Anticancer Activity of Sunitinib Analogues in Human Pancreatic Cancer Cell Cultures under Normoxia and Hypoxia” (International Journal of Molecular Sciences, 2023).
# Legend:
# [1] = system: AsPC-1 cell line; conditions: cited from earlier work
# [2] = system: MIA PaCa-2 cell line; conditions: cited from earlier work
smiles,measurement,setting,value
Cc1ccc(NC(=O)c2ccc(CN3CCN(C)CC3)cc2)cc1Nc1nccc(-c2cccnc2)n1 [imatinib],EC50,[1],20 µM
same,EC50,[2],9 µM
